Laboratory results: PubChem BioAssay AID1347076 (National Center for Advancing Translational Sciences (NCATS), 2019)
Hit rate of the full screen: of about 400,000 compounds, about 13,000 (3.2%) were called active. The shares of active, inactive and inconclusive entries below differ from those in the screen. Calls come from the whole dose curve; as a rule, active = well fitted cell-killing curve with a large enough effect; inconclusive = small, poorly fitted or top-dose-only effect, or effect the other way; inactive = flat fitted curve, though single readings scatter. A potency beside an inconclusive call is a rough fit, not a confirmed value.

Test: qHTS assay for MDR1-selective chemotherapeutics: Primary screen using the drug-selected MDR subline cells KB-V1; note: nearly all actives have a fitted effect of over 60% in size
Details: KB-V1 MDR cells viability, CellTiter-Glo, 72 h; activity change, negative = cytotoxicity: at 46.1 µM (top of the series)
Outline: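 Cytotoxicity toward P-gp-expressing KB-V1 cells was determined as loss of CellTiter-Glo luminescence after 72 h at 37 degrees C. Compounds were tested in quantitative HTS format across a concentration range, with curves fitted to normalized data.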
% is set by controls: 0 for no effect and ±100 for the full control effect; potency is the fitted concentration of half-maximal effect.

Row | Structure (SMILES) | Potency | activity change, negative = cytotoxicity
1 | CC(=O)NS(=O)(=O)c1ccc(NC(=O)C2C3C=CC(C3)C2C(=O)O)cc1 (stereo not drawn) | inconclusive: 29.1 µM [rising, single point] | –
2 | O=S(=O)(c1ccc(Cl)cc1)c1nc(-c2ccccc2Br)oc1N1CCOCC1 | inconclusive: 6.51 µM [cytotoxic, full curve, poor fit] | –
3 | Cc1ccc2c(c1)CC1(CN2C)C(=O)OC2(CCCCC2)OC1=O | inactive | –
4 | CC1CCN(S(=O)(=O)c2ccc(S(=O)(=O)NCc3cccnc3)cc2)CC1 | inconclusive: 18.4 µM [cytotoxic, single point] | –
5 | COC(=O)c1c(NC(=S)Nc2cc(OC)c(Cl)cc2OC)sc2c1CCCCC2 | active: 20.6 µM | –
6 | Cc1cc(NC(=O)CSc2ncnc3sccc23)no1 | inconclusive: 29.1 µM [rising, single point] | –
7 | Cc1sc2ncnc(Sc3nnnn3-c3ccc(Cl)cc3)c2c1C | inconclusive: 29.1 µM [cytotoxic, single point] | –
8 | Cc1cccc(NS(=O)(=O)c2ccc(Cl)cc2)n1 | inconclusive: 25.9 µM [rising, single point] | –
9 | CON(C)c1nc(Oc2ccc(=O)[nH]n2)nc(N(C)C)n1 | inconclusive: 29.1 µM [rising, single point] | –
10 | CCOC(CCn1c(SCC(=O)NC2CCCC2)nc2ccccc2c1=O)OCC | inconclusive: 1.64 µM [cytotoxic, full curve, poor fit] | –
11 | Cc1ccc(C(=O)Nc2ccc3c(c2)N(C)C(=O)c2ccccc2S3)cc1F | active: 6.51 µM | –
12 | Cc1[nH]nc2c1C(c1ccc(F)cc1)C(C#N)=C(N)O2 (stereo not drawn) | inconclusive: 11.6 µM [rising, partial curve, poor fit] | –
13 | Cc1cc2oc(=O)cc(-c3ccccc3)c2c(C)c1-c1ccc(C#N)cc1 | inconclusive: 16.4 µM [cytotoxic, single point] | –
14 | O=C(N/N=C/c1ccc2c(c1)OCO2)c1sc2cc(Cl)ccc2c1Cl | inconclusive: 32.6 µM [cytotoxic, single point] | –
15 | CCOc1ccccc1CN1CCN(CC2=Cc3cc(OC)ccc3OC2)CC1CCO (stereo not drawn) | inconclusive: 14.6 µM [cytotoxic, partial curve] | –
16 | COc1cc(NC(=O)c2cc(OC)c(OC)c(OC)c2)ccc1NC(=O)c1cccs1 | inconclusive: 1.03 µM [cytotoxic, full curve] | –
17 | COCCN(CCOC)S(=O)(=O)c1ccc(C(=O)Nc2nc(-c3ccncc3)cs2)cc1 | inconclusive: 8.2 µM [cytotoxic, partial curve] | –
18 | CCOC(=O)c1c(-c2ccc(C)cc2)csc1NC(=O)c1cc(=O)c2cc(C)c(C)cc2o1 | – | inactive: 1.52%

Copied from the results shown for reference:
Row | Structure (SMILES) | Potency | activity change, negative = cytotoxicity
4 | CC1CCN(S(=O)(=O)c2ccc(S(=O)(=O)NCc3cccnc3)cc2)CC1 | inconclusive: 18.4 µM [cytotoxic, single point] | –
5 | COC(=O)c1c(NC(=S)Nc2cc(OC)c(Cl)cc2OC)sc2c1CCCCC2 | active: 20.6 µM | –
